Measured values reported in patent US11576382B2, “Naphthalene isoxazoline compounds for controlling invertebrate pests” (FMC Corporation, priority 2018, dated 2023).
Some of these results come from one statement about several compounds together. At least one structure is not confirmed: it was looked up by name or label, or the drawing left a doubt.

Experiments:
Assay type in all cases: in vivo
[1] = tested on: diamondback moth (Plutella xylostella (L.)); experiment: Test A: control of diamondback moth, foliar spray on mustard plant; settings: assessed after 6 days, very good to excellent levels of control efficacy
[2] = tested on: fall armyworm (Spodoptera frugiperda (J. E. Smith)); experiment: Test B: control of fall armyworm, foliar spray on corn (maize) plant; settings: assessed after 6 days, very good to excellent levels of control efficacy
[3] = tested on: potato leafhopper (Empoasca fabae (Harris)); experiment: Test D: control of potato leafhopper through contact and/or systemic means; settings: Soleil bean plant, assessed after 6 days
[4] = tested on: green peach aphid (Myzus persicae (Sulzer)); experiment: Test E: control of green peach aphid through contact and/or systemic means; settings: radish plant, assessed after 6 days
Description: (§1) Formulation and Spray Methodology for Tests A-H
(§2) Test compounds were formulated using a solution containing 10% acetone, 90% water and 300 ppm Activator 90® non-ionic surfactant (Loveland Products, Loveland, Colo., USA). The formulated compounds were applied in 1 mL of liquid through an atomizer nozzle positioned 1.27 cm (0.5 inches) above the top of each test unit. Test compounds were sprayed at the rates indicated, and each test was replicated three times.
For evaluating control of green peach aphid (Myzus persicae (Sulzer)) through contact and/or systemic means, the test unit consisted of a small open container with a 12-15-day-old radish plant inside. This was pre-infested by placing on a leaf of the test plant 30-40 aphids on a piece of leaf excised from a culture plant (cut-leaf method). The aphids moved onto the test plant as the leaf piece desiccated. After pre-infestation, the soil of the test unit was covered with a layer of sand.
Test compounds were formulated and sprayed at 250, 50 and 10 ppm. After spraying of the formulated test compound, each test unit was allowed to dry for 1 hour and then a black, screened cap was placed on top. The test units were held for 6 days in a growth chamber at 19-21° C. and 50-70% relative humidity. Each test unit was then visually assessed for insect mortality.

[5] = tested on: cotton melon aphid (Aphis gossypii (Glover)); experiment: Test F: control of cotton melon aphid through contact and/or systemic means; settings: okra plant, assessed after 6 days
Description: as §1, §2
For evaluating control of cotton melon aphid (Aphis gossypii (Glover)) through contact and/or systemic means, the test unit consisted of a small open container with a 5-day-old okra plant inside. This was pre-infested with 30-40 insects on a piece of leaf according to the cut-leaf method, and the soil of the test unit was covered with a layer of sand.
Test compounds were formulated and sprayed at 250, 50 and 10 ppm. After spraying, the test units were maintained in a growth chamber for 6 days at 19° C. and 70% relative humidity. Each test unit was then visually assessed for insect mortality.

[6] = tested on: sweetpotato whitefly (Bemisia tabaci (Gennadius)); experiment: Test G: control of sweetpotato whitefly through contact and/or systemic means; settings: cotton plant infested with eggs, assessed after 13 days
Description: as §1, §2
For evaluating control of the sweetpotato whitefly (Bemisia tabaci (Gennadius)) through contact and/or systemic means, the test unit consisted of a small open container with a 12-14-day-old cotton plant inside. Prior to the spray application, both cotyledons were removed from the plant, leaving one true leaf for the assay. Adult whiteflies were allowed to lay eggs on the plant and then were removed from the test unit. Cotton plants infested with at least 15 eggs were submitted to the test for spraying.
Test compounds were formulated and sprayed at 250, 50, and 10 ppm. After spraying, the test units were allowed to dry for 1 hour. The cylinders were then removed, and the units were taken to a growth chamber and held for 13 days at 28° C. and 50-70% relative humidity. Each test unit was then visually assessed for insect mortality.

[7] = tested on: Western Flower Thrips (Frankliniellla occidentalis (Pergande)); experiment: Test H: control of Western Flower Thrips through contact and/or systemic means; settings: Soleil bean plant, assessed after 6 days, very good to excellent levels of control efficacy

SMILES: CC(NC(=O)c1ccc(C2=NOC(c3cc(Cl)c(F)c(Cl)c3)(C(F)(F)F)C2)c2ccccc12)c1ccccn1 (stereo not drawn) [Compound 18]
- control efficacy: feeding damage (40% or less feeding damage and/or 100% mortality) ([1]; sprayed at 2 ppm): ≤ 40%
- control efficacy: feeding damage (40% or less feeding damage and/or 100% mortality) ([1]; sprayed at 10 ppm): ≤ 40%
- control efficacy: feeding damage (40% or less feeding damage and/or 100% mortality) ([2]; sprayed at 2 ppm): ≤ 40%
- control efficacy: feeding damage (40% or less feeding damage and/or 100% mortality) ([2]; sprayed at 10 ppm): ≤ 40%
- mortality ([3]; sprayed at 2 ppm): at least 80%
- mortality ([3]; sprayed at 10 ppm): at least 80%
- mortality ([3]; sprayed at 50 ppm): at least 80%
- mortality ([4]; sprayed at 50 ppm): at least 80%
- mortality ([5]; sprayed at 50 ppm): at least 80%
- mortality ([6]; sprayed at 2 ppm): at least 70%
- mortality ([6]; sprayed at 10 ppm): at least 70%
- mortality ([6]; sprayed at 50 ppm): at least 70%
- control efficacy: plant damage (30% or less plant damage and/or 100% mortality) ([7]; sprayed at 10 ppm): ≤ 30%

SMILES: C[C@@H](NC(=O)c1ccc(C2=NOC(c3cc(Cl)c(F)c(Cl)c3)(C(F)(F)F)C2)c2ccccc12)c1ccccn1 (stereo partly drawn) [Compound 20]
- control efficacy: feeding damage (40% or less feeding damage and/or 100% mortality) ([1]; sprayed at 2 ppm): ≤ 40%
- control efficacy: feeding damage (40% or less feeding damage and/or 100% mortality) ([1]; sprayed at 10 ppm): ≤ 40%
- control efficacy: feeding damage (40% or less feeding damage and/or 100% mortality) ([2]; sprayed at 2 ppm): ≤ 40%
- control efficacy: feeding damage (40% or less feeding damage and/or 100% mortality) ([2]; sprayed at 10 ppm): ≤ 40%
- mortality ([3]; sprayed at 2 ppm): at least 80%
- mortality ([3]; sprayed at 10 ppm): at least 80%
- mortality ([3]; sprayed at 50 ppm): at least 80%
- mortality ([4]; sprayed at 50 ppm): at least 80%
- mortality ([5]; sprayed at 10 ppm): at least 80%
- mortality ([5]; sprayed at 50 ppm): at least 80%
- mortality ([6]; sprayed at 2 ppm): at least 70%
- mortality ([6]; sprayed at 10 ppm): at least 70%
- mortality ([6]; sprayed at 50 ppm): at least 70%
- control efficacy: plant damage (30% or less plant damage and/or 100% mortality) ([7]; sprayed at 2 ppm): ≤ 30%
- control efficacy: plant damage (30% or less plant damage and/or 100% mortality) ([7]; sprayed at 10 ppm): ≤ 30%

SMILES: CCN1OC[C@@H](N(Cc2ccccn2)C(=O)c2ccc(C3=NOC(c4cc(Cl)c(F)c(Cl)c4)(C(F)(F)F)C3)c3ccccc23)C1=O (stereo partly drawn) [Compound 34, 4-[5-(3,5-dichloro-4-fluorophenyl)-4,5-dihydro-5-(trifluoromethyl)-3-isoxazolyl]-N-(2-pyridinylmethyl)-N-[(4R)-2-ethyl-3-oxo-4-isoazolidinyl]-1-naphthalenecarboxamide]
- control efficacy: feeding damage (40% or less feeding damage and/or 100% mortality) ([1]; sprayed at 2 ppm): ≤ 40%
- control efficacy: feeding damage (40% or less feeding damage and/or 100% mortality) ([1]; sprayed at 10 ppm): ≤ 40%
- control efficacy: feeding damage (40% or less feeding damage and/or 100% mortality) ([1]; sprayed at 50 ppm): ≤ 40%
- control efficacy: feeding damage (40% or less feeding damage and/or 100% mortality) ([1]; sprayed at 250 ppm): ≤ 40%
- control efficacy: feeding damage (40% or less feeding damage and/or 100% mortality) ([2]; sprayed at 2 ppm): ≤ 40%
- control efficacy: feeding damage (40% or less feeding damage and/or 100% mortality) ([2]; sprayed at 10 ppm): ≤ 40%
- control efficacy: feeding damage (40% or less feeding damage and/or 100% mortality) ([2]; sprayed at 50 ppm): ≤ 40%
- control efficacy: feeding damage (40% or less feeding damage and/or 100% mortality) ([2]; sprayed at 250 ppm): ≤ 40%
- mortality ([3]; sprayed at 50 ppm): at least 80%
- mortality ([3]; sprayed at 250 ppm): at least 80%
- mortality ([4]; sprayed at 50 ppm): at least 80%
- mortality ([4]; sprayed at 250 ppm): at least 80%
- mortality ([5]; sprayed at 50 ppm): at least 80%
- mortality ([5]; sprayed at 250 ppm): at least 80%
- mortality ([6]; sprayed at 10 ppm): at least 70%
- mortality ([6]; sprayed at 50 ppm): at least 70%
- mortality ([6]; sprayed at 250 ppm): at least 70%
- control efficacy: plant damage (30% or less plant damage and/or 100% mortality) ([7]; sprayed at 2 ppm): ≤ 30%
- control efficacy: plant damage (30% or less plant damage and/or 100% mortality) ([7]; sprayed at 10 ppm): ≤ 30%
- control efficacy: plant damage (30% or less plant damage and/or 100% mortality) ([7]; sprayed at 50 ppm): ≤ 30%
- control efficacy: plant damage (30% or less plant damage and/or 100% mortality) ([7]; sprayed at 250 ppm): ≤ 30%

SMILES: COCC(NC(=O)c1ccc(C2=NOC(c3cc(Cl)c(F)c(Cl)c3)(C(F)(F)F)C2)c2ccccc12)C(=O)OC (stereo not drawn) [Compound 41]
- control efficacy: feeding damage (40% or less feeding damage and/or 100% mortality) ([1]; sprayed at 2 ppm): ≤ 40%
- control efficacy: feeding damage (40% or less feeding damage and/or 100% mortality) ([1]; sprayed at 10 ppm): ≤ 40%
- control efficacy: feeding damage (40% or less feeding damage and/or 100% mortality) ([2]; sprayed at 10 ppm): ≤ 40%
- mortality ([3]; sprayed at 10 ppm): at least 80%
- mortality ([3]; sprayed at 50 ppm): at least 80%
- mortality ([4]; sprayed at 50 ppm): at least 80%
- mortality ([5]; sprayed at 10 ppm): at least 80%
- mortality ([5]; sprayed at 50 ppm): at least 80%
- mortality ([6]; sprayed at 50 ppm): at least 70%
- control efficacy: plant damage (30% or less plant damage and/or 100% mortality) ([7]; sprayed at 10 ppm): ≤ 30%

SMILES: O=C(NCc1ncccn1)c1ccc(C2=NOC(c3ccc(F)c(C(F)(F)F)c3)(C(F)(F)F)C2)c2ccccc12 (stereo not drawn) [Compound 50]
- control efficacy: feeding damage (40% or less feeding damage and/or 100% mortality) ([1]; sprayed at 2 ppm): ≤ 40%
- control efficacy: feeding damage (40% or less feeding damage and/or 100% mortality) ([1]; sprayed at 10 ppm): ≤ 40%
- control efficacy: feeding damage (40% or less feeding damage and/or 100% mortality) ([2]; sprayed at 2 ppm): ≤ 40%
- control efficacy: feeding damage (40% or less feeding damage and/or 100% mortality) ([2]; sprayed at 10 ppm): ≤ 40%
- mortality ([3]; sprayed at 10 ppm): at least 80%
- mortality ([3]; sprayed at 50 ppm): at least 80%
- mortality ([4]; sprayed at 50 ppm): at least 80%
- mortality ([5]; sprayed at 50 ppm): at least 80%
- control efficacy: plant damage (30% or less plant damage and/or 100% mortality) ([7]; sprayed at 2 ppm): ≤ 30%
- control efficacy: plant damage (30% or less plant damage and/or 100% mortality) ([7]; sprayed at 10 ppm): ≤ 30%
